We go through one compound from paper PMC9151520 (Archives of Toxicology, 2022).

A short description of this series: in vitro. As to conditions: male, Sprague Dawley, rat, microsomes, pH 7.4.

A word on the half-life: it is the time needed for the level to fall by half in the phase considered. Read a high half-life as slow decline.

`CCOP(=O)(NC(C)C)Oc1ccc(SC)c(C)c1` (stereo not shown) [Fenamiphos] yielded a half-life of 2.56 ± 0.11 min.
